Assay results published in the supplement of paper PMC12823440, “Inhibitors supercharge kinase turnover through native proteolytic circuits” (Nature, 2025).
Structures can show the parent of a compound that is named as a salt. The list shows a part of the results. Hit calls seldom repeat between salt and free forms of one compound.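 Kinases were expressed as nanoluciferase fusions in K562 cells and luminescence was read every 4 h between 2 and 18 h as percent of control, DMSO set to 100% and a positive control to 0%. A time point counts as decreased when the signal drops significantly (2 sigma). The hit call is the authors' own, does not follow from the count of time points alone, and its rule is not shown.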

Chains of the proteins cited; added tags and fusions are not shown.
UniProt P07949, whole entry, looked up: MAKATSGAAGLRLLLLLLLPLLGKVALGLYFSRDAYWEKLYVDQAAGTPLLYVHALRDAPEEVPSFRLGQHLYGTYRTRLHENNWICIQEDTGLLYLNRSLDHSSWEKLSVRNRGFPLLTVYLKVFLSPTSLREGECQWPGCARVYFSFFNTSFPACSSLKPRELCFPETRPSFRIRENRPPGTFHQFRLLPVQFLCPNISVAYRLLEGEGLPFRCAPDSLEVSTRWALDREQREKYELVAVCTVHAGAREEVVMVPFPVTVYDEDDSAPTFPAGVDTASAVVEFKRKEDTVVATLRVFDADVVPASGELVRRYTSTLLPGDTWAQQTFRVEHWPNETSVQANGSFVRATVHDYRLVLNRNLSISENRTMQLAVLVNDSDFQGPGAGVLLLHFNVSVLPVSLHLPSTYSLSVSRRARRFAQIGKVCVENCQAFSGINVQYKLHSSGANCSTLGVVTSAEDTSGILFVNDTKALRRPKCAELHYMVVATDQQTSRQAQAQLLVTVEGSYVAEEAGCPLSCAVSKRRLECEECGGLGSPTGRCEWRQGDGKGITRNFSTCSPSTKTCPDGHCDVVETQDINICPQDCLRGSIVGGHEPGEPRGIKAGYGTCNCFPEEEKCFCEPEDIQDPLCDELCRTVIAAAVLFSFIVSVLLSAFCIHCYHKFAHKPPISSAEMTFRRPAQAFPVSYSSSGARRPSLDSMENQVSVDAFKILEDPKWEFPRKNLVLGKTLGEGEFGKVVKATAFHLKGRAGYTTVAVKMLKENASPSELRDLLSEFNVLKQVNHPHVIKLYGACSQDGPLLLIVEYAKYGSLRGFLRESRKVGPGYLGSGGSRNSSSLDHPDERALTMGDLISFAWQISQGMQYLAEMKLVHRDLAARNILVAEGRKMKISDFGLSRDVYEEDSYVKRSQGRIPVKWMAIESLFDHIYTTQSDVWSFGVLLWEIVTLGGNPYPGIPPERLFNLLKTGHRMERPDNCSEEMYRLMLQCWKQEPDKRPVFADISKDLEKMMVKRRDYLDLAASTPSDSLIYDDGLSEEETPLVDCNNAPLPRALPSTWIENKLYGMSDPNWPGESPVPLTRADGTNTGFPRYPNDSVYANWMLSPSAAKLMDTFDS

Target: RET (UniProt P07949)
Assay: kinase-Nluc reporter destabilization hit call (1 = scored as downregulated) (binary); higher = compound decreases kinase abundance
Details: K562; 2-18 h

kinase-Nluc reporter destabilization hit call, inactive:
O=C(CSC1=NCCN1)NC1CCCCCC1 [ICCB-19 (hydrochloride)] (2.5 µM) 0, CCCS(=O)(=O)Nc1ccc(F)c(C(=O)c2c[nH]c3ncc(-c4ccc(Cl)cc4)cc23)c1F [Vemurafenib] (10 µM) 0, Cc1ccc(OCCSc2ncccn2)c(Br)c1 [ZLN024 (hydrochloride)] (10 µM) 0, Nc1ncnc2c1c(-c1ccc(Oc3ccccc3)cc1)nn2C1CCCC1 (2.5 µM) 0, COc1ncc(Cl)cc1S(=O)(=O)Nc1ccc(F)c(C#Cc2cnc(N)nc2)c1F (2.5 µM) 0, Cc1ccc(CNc2ncnc3ccc(-c4ccc(CO)o4)cc23)o1 (10 µM) 0, NC(=O)c1nnc(N[C@@H]2CCCC[C@@H]2N)nc1Nc1cccc2cc[nH]c12 (10 µM) 0, CNc1nc(Nc2ccc(C(=O)N3CCOCC3)cc2OC)nc2[nH]cc(Cl)c12 (2.5 µM) 0, CCNc1nc(Nc2cc(F)c(C(=O)N3CCOCC3)cc2OC)ncc1C(F)(F)F [GNE-7915 (tosylate)] (10 µM) 0, CCN1CCN(Cc2ccc(Nc3ncc(F)c(-c4cc(F)c5nc(C)n(C(C)C)c5c4)n3)nc2)CC1 [Abemaciclib] (2 µM) 0, COCCNc1nc2ccc(C#CC3(O)CCCCC3)cc2n1-c1ccnc(N)n1 (10 µM) 0, OCCn1cc(-c2ccc3c(c2)CC/C3=N\O)c(-c2ccncc2)n1 (10 µM) 0, O=C1N[C@@H](Cc2c[nH]c3ccccc23)C(=O)N2CCC[C@@H]12 [Brevianamide F] (10 µM) 0, Cn1nccc1Nc1nccc(-c2ccn([C@H](CO)c3ccc(Cl)c(F)c3)c(=O)c2)n1 [Ravoxertinib] (10 µM) 0, O=C(NCCN1CCOCC1)c1cc2c(Oc3ccc(NC(=O)C4(C(=O)Nc5ccc(F)cc5)CC4)cc3)ccnc2[nH]1 [Tyrosine kinase inhibitor] (10 µM) 0, COc1cc2c(N3CCN(C(=O)Nc4ccc(OC(C)C)cc4)CC3)ncnc2cc1OCCCN1CCCCC1 [Tandutinib (hydrochloride)] (10 µM) 0, COc1cc(/C=C/C(=O)NCC(O)c2ccc(O)cc2)ccc1O (stereo not drawn) [N-Feruloyloctopamine] (2.5 µM) 0, COc1cc2nccc(Oc3ccc(NC(=O)NC4CC4)c(Cl)c3)c2cc1C(N)=O [Lenvatinib (mesylate)] (10 µM) 0, CN1CCN(c2cccc(Nc3nc4c(-c5ccc(S(C)(=O)=O)cc5)cccn4n3)c2)CC1 (10 µM) 0, C=C(CC[C@@H](C(=O)O)[C@H]1[C@H](O)C[C@@]2(C)C3=C(CC[C@]12C)[C@@]1(C)CC[C@H](OC(C)=O)C(C)(C)[C@@H]1CC3)C(C)C [Pachymic acid] (10 µM) 0, O=c1[nH]c(=O)n([C@@H]2O[C@H](CO)[C@@H](O)[C@@H]2O)cc1/C=C/Br [Sorivudine] (10 µM) 0, NC(=O)c1ccc(-c2nc(-c3ccc4c(c3)OCCO4)c(-c3ccccn3)[nH]2)cc1 (10 µM) 0, CC#CC(=O)Nc1ccc2ncnc(Nc3cccc(Br)c3)c2c1 (10 µM) 0, CCc1c(C(=O)NNC(=O)C(O)c2cc(F)cc(F)c2)ccc(O)c1C (stereo not drawn) (10 µM) 0, CC(=O)c1c(C)cc2cccc(O)c2c1O [Nepodin] (10 µM) 0, Cc1c(-c2c(F)cc(C(N)=O)c3[nH]c4c(c23)CC[C@H](C(C)(C)O)C4)cccc1-n1c(=O)c2cccc(F)c2n(C)c1=O (2.5 µM) 0, CCc1cc2c(cc1N1CCC(N3CCOCC3)CC1)C(C)(C)c1[nH]c3cc(C#N)ccc3c1C2=O [Alectinib] (10 µM) 0, FC(F)c1nc2ccccc2n1-c1nc(N2CCOCC2)nc(N2CCOCC2)n1 (2 µM) 0, FC(F)(c1ccc2ncccc2c1)c1nnc2ccc(-c3ccncc3)nn12 (10 µM) 0, Cn1cc(-c2cnn3c(N)c(Br)c([C@@H]4CCCNC4)nc23)cn1 (2.5 µM) 0, C[C@@H]1COCCN1c1cc(C2([S@@](C)(=N)=O)CC2)nc(-c2ccnc3[nH]ccc23)n1 [(S)-Ceralasertib] (10 µM) 0, CC#CC(=O)N1CC[C@@H](n2c(=O)n(-c3ccc(Oc4ccccc4)cc3)c3c(N)ncnc32)C1 [Tirabrutinib] (10 µM) 0, C[C@@]1(c2ncncc2F)NC(=O)c2cc(-c3cn[nH]c3)ccc21 (10 µM) 0, COc1ccc(Cl)c(Nc2nc3ccccc3nc2NS(=O)(=O)c2cccc(NC(=O)C(C)(C)N)c2)c1 [Pilaralisib] (10 µM) 0, O=Nc1c(-c2c(O)[nH]c3ccc(I)cc23)[nH]c2ccccc12 [5-Iodo-indirubin-3'-monoxime] (10 µM) 0, COc1cc2nccc(Oc3ccc(NC(=O)NC4CC4)c(Cl)c3)c2cc1C(N)=O [Lenvatinib] (10 µM) 0, C[C@]1(O)CCN(c2nc(N3C[C@H](O)[C@@H](O)C3)cc(C(F)(F)F)c2C#N)C1 (10 µM) 0, Cn1cnc(Cn2ccc3ccc(CNCc4[nH]c5ccccc5c4[C@H]4NC(=O)c5ccc(O)cc54)cc32)c1 (10 µM) 0
